The supplement of paper PMC12823440, “Inhibitors supercharge kinase turnover through native proteolytic circuits” (Nature, 2025)
Structures can show the parent of a compound that is named as a salt. Some of the results follow. The calls rarely recur for the same compound in another form.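 Kinases were expressed as nanoluciferase fusions in K562 cells and luminescence was read every 4 h between 2 and 18 h as percent of control, DMSO set to 100% and a positive control to 0%. A time point counts as decreased when the signal drops significantly (2 sigma). The hit call is the authors' own, does not follow from the count of time points alone, and its rule is not shown.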

Chains of the proteins cited; added tags and fusions are not shown. Lines headed by an entry give the natural chain unless they say otherwise; changes in a name come on top.
UniProt Q9BUB5: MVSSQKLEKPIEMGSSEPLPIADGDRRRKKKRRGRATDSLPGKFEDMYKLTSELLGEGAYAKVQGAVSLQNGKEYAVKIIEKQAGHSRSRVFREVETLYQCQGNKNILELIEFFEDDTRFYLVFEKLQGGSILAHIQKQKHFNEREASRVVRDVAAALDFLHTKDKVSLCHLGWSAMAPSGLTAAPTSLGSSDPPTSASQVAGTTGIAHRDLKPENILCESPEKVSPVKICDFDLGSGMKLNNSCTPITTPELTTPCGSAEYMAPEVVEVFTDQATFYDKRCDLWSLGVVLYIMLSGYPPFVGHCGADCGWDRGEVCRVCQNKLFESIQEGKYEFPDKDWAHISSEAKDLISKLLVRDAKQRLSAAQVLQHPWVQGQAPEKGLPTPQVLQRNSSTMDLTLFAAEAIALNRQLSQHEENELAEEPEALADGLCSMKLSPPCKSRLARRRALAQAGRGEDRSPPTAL
UniProt Q16288, whole entry, looked up: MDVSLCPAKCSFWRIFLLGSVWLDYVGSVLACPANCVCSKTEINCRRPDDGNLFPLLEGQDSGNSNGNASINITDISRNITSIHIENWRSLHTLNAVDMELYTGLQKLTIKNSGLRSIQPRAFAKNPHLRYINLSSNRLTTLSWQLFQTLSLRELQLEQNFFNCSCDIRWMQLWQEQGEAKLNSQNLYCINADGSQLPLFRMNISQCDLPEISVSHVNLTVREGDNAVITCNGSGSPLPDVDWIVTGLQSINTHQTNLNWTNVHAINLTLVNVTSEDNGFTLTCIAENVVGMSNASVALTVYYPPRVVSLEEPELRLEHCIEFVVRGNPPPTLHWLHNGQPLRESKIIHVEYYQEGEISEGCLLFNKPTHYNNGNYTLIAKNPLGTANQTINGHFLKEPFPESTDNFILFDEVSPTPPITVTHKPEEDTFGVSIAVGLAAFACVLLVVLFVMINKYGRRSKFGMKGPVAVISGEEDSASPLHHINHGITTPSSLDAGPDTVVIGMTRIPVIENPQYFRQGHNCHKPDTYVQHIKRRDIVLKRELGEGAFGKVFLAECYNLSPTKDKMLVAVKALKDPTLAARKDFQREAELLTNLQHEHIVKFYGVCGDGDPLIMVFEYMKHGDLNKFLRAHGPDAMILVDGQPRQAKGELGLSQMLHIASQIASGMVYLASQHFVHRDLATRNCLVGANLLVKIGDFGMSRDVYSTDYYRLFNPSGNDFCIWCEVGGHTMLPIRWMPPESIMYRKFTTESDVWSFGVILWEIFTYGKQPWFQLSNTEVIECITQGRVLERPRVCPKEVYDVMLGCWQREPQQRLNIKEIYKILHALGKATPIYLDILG
UniProt Q96KB5: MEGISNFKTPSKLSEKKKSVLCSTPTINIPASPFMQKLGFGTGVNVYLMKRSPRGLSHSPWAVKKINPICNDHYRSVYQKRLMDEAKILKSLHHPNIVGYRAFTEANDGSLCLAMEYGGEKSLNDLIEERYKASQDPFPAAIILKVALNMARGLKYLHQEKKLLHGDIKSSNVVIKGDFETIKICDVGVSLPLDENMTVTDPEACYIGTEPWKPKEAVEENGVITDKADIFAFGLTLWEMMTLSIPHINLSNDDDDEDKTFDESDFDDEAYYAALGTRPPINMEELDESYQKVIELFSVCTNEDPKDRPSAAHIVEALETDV
UniProt Q15118, whole entry, looked up: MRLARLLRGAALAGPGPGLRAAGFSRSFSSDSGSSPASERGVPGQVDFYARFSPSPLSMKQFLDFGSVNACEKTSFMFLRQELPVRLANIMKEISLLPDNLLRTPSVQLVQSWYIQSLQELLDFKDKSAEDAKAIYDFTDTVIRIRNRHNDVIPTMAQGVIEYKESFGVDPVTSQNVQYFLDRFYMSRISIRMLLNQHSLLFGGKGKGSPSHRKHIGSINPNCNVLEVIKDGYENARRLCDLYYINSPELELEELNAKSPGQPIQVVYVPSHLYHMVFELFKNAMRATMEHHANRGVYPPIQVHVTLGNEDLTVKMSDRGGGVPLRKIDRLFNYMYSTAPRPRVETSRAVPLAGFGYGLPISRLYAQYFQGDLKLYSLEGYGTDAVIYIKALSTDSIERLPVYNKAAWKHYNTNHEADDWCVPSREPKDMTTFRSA
UniProt O15530: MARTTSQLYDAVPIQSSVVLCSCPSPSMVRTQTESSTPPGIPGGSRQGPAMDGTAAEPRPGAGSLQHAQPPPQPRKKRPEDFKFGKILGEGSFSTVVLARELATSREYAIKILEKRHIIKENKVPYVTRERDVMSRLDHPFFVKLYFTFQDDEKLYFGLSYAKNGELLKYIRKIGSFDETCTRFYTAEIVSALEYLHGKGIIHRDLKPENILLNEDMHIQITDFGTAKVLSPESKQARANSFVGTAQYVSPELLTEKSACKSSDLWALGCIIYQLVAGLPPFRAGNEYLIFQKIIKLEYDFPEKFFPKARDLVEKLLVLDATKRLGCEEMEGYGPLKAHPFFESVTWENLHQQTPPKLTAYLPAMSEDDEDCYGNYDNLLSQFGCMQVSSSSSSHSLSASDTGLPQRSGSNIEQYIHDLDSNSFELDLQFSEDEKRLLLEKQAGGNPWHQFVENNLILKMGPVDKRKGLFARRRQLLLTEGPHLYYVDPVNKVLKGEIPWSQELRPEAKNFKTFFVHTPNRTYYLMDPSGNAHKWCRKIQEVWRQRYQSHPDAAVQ
UniProt P42356, whole entry, looked up: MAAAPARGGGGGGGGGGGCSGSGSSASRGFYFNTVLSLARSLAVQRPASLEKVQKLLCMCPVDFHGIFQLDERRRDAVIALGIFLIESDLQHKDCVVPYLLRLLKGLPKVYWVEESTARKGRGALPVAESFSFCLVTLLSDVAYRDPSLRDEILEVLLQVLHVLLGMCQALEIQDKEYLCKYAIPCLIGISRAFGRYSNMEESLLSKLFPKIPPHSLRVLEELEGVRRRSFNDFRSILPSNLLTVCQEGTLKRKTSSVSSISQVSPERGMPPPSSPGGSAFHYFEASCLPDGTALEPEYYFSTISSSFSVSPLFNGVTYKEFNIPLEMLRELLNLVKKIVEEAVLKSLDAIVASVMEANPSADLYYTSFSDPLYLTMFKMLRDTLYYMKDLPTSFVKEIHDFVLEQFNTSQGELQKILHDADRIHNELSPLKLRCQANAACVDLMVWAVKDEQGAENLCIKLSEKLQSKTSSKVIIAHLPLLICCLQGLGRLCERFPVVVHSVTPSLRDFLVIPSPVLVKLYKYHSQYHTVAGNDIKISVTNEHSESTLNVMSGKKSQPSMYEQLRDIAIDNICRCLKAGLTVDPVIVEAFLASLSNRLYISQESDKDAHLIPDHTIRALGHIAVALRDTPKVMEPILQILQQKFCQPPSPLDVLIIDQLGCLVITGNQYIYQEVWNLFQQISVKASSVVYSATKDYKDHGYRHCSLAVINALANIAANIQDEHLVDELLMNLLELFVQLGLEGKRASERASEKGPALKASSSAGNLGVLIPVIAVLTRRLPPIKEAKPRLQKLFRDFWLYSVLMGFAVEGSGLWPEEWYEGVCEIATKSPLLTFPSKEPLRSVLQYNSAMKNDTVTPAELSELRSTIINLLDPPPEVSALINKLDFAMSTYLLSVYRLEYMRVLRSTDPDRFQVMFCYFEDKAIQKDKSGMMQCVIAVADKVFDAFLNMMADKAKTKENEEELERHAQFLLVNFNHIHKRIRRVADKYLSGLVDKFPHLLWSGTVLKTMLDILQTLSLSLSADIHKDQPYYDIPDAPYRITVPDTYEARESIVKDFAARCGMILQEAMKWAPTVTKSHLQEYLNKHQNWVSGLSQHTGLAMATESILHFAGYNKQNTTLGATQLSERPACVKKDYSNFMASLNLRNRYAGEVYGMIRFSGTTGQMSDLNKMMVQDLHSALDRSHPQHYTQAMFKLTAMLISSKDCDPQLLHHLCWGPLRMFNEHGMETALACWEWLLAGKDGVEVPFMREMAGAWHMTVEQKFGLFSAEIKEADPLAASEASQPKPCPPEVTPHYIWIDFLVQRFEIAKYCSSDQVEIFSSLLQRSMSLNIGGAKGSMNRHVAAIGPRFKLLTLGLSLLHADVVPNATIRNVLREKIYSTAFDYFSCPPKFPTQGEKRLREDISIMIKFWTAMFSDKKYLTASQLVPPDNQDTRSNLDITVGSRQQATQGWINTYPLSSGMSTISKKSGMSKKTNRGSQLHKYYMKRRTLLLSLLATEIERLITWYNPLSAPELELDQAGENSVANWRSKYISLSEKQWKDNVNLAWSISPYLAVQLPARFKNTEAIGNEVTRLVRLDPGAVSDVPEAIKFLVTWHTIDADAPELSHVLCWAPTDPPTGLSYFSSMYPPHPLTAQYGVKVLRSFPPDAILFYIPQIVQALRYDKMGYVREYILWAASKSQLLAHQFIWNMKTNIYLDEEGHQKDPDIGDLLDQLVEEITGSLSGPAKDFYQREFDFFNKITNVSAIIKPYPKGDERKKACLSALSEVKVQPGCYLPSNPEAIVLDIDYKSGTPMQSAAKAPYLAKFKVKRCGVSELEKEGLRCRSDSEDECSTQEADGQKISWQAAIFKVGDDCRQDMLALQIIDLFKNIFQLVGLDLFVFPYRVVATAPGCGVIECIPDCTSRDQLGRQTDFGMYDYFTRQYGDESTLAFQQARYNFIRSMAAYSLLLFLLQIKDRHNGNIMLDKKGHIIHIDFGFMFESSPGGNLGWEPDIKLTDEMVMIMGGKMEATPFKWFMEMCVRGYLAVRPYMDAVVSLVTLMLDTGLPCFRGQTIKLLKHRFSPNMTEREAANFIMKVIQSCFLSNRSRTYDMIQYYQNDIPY
UniProt Q9UBF8: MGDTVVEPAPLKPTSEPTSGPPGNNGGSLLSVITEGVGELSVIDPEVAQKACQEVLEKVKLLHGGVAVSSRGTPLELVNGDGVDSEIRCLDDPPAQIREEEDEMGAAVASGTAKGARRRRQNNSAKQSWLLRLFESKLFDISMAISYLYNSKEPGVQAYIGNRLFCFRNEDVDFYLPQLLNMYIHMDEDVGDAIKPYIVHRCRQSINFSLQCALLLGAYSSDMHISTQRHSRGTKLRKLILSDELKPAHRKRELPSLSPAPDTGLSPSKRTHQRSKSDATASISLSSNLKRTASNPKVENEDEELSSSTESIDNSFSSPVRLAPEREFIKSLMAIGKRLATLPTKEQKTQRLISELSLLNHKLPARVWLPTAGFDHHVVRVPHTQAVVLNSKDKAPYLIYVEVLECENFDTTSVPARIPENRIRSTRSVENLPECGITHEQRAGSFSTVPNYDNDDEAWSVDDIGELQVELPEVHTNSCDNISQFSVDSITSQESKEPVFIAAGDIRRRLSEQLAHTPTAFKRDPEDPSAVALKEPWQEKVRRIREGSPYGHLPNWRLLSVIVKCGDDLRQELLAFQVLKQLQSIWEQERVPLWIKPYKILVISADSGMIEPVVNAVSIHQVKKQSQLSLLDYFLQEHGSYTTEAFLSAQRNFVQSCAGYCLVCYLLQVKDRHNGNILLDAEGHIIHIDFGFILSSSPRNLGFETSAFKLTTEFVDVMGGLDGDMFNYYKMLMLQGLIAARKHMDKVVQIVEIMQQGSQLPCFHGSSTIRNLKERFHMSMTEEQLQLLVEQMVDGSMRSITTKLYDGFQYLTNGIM
UniProt Q05397, whole entry, looked up: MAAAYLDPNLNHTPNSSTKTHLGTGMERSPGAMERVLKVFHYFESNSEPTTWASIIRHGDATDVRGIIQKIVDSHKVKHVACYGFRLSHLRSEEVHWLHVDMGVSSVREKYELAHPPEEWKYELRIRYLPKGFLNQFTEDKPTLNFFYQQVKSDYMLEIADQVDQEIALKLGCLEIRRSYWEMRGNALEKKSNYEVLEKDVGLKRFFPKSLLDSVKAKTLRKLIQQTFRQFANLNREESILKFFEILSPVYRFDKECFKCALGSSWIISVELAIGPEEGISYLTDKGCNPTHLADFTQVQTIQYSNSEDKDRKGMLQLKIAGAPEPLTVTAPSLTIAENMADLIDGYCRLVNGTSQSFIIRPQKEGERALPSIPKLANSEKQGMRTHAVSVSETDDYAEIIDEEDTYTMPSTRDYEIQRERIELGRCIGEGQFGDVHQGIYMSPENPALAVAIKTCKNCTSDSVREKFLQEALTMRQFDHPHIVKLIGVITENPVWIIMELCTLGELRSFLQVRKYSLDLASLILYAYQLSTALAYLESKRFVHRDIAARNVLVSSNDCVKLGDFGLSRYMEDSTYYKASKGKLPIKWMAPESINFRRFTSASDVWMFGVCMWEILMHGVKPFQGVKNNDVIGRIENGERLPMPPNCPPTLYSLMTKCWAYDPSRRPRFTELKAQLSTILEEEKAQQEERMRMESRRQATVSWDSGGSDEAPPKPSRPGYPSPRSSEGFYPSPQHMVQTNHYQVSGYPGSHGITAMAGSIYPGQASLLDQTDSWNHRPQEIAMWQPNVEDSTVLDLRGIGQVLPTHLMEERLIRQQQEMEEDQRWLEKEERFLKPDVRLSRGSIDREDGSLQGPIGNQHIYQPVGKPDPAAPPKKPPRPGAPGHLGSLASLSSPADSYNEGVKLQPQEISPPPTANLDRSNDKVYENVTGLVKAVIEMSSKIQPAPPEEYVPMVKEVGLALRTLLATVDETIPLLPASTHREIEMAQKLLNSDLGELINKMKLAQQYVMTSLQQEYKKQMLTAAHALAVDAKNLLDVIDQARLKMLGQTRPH

What was measured:
Assay in all cases: kinase-Nluc reporter destabilization hit call (1 = scored as downregulated) (binary); higher = compound decreases kinase abundance
Settings in all cases: K562; 2-18 h
MAPK1 = MAPK1 (UniProt P28482)
MAPK4 = MAPK4 (UniProt P31152)
MAPKAPK2 = MAPKAPK2 (UniProt P49137)
MKNK1 = MKNK1 (UniProt Q9BUB5)
NTRK2 = NTRK2 (UniProt Q16620)
NTRK3 = NTRK3 (UniProt Q16288)
PAK4 = PAK4 (UniProt O96013)
PBK = PBK (UniProt Q96KB5)
PDGFRB = PDGFRB (UniProt P09619)
PDK1 = PDK1 (UniProt Q15118)
PDPK1 = PDPK1 (UniProt O15530)
PIK4CA = PIK4CA (UniProt P42356)
PIK4CB = PIK4CB (UniProt Q9UBF8)
PLK1 = PLK1 (UniProt P53350)
PRKAA1 = PRKAA1 (UniProt Q13131)
PRKCA = PRKCA (UniProt P17252)
PTK2 = PTK2 (UniProt Q05397)
PTK2B = PTK2B (UniProt Q14289)
RAF1 = RAF1 (UniProt P04049)
[1] = target: RAF1_S257L (clone: RAF1_mut) (UniProt P04049)

Measured: kinase-Nluc reporter destabilization hit call

O=C(CC(c1ccccc1)C(C(=O)O)C(=O)O)c1ccc(C(F)(F)F)cc1 (stereo not given) (10 µM)
inactive: MAPK1 = 0 | MAPK4 = 0 | MAPKAPK2 = 0 | MKNK1 = 0 | NTRK2 = 0 | NTRK3 = 0 | PAK4 = 0 | PBK 0 | PDGFRB 0 | PDK1 = 0 | PDPK1 = 0 | PIK4CA 0 | PIK4CB 0 | PLK1 = 0 | PRKAA1 = 0 | PRKCA 0 | PTK2 = 0 | PTK2B 0 | RAF1 = 0 | [1] 0

N#Cc1cn([C@@H]2O[C@H](CO)[C@@H](O)[C@H]2O)c2nc[nH]c(=O)c12 [Jaspamycin] (10 µM)
inactive: MAPK1 = 0 | MAPK4 = 0 | MAPKAPK2 = 0 | MKNK1 = 0 | NTRK2 = 0 | NTRK3 = 0 | PAK4 = 0 | PBK 0 | PDGFRB 0 | PDK1 = 0 | PDPK1 = 0 | PIK4CA 0 | PIK4CB 0 | PLK1 = 0 | PRKAA1 = 0 | PRKCA 0 | PTK2 = 0 | PTK2B 0 | RAF1 = 0 | [1] 0

Cn1cc(C2=C(c3c4n(c5ccccc35)CCC(CN)C4)C(=O)NC2=O)c2ccccc21 (stereo not given) [Bisindolylmaleimide X (hydrochloride)] (2.5 µM)
inactive: MAPK1 = 0 | MAPK4 = 0 | MAPKAPK2 = 0 | MKNK1 = 0 | NTRK2 = 0 | NTRK3 = 0 | PAK4 = 0 | PBK 0 | PDGFRB 0 | PDK1 = 0 | PDPK1 = 0 | PIK4CA 0 | PIK4CB 0 | PLK1 = 0 | PRKAA1 = 0 | PRKCA 0 | PTK2 = 0 | PTK2B 0 | RAF1 = 0 | [1] 0

C=CC(=O)Nc1cccc(Oc2nc(Nc3ccc(N4CCN(C)CC4)cc3)nc3ccsc23)c1 [Olmutinib] (2.5 µM)
inactive: MAPK1 = 0 | MAPK4 = 0 | MAPKAPK2 = 0 | MKNK1 = 0 | NTRK2 = 0 | NTRK3 = 0 | PAK4 = 0 | PBK 0 | PDGFRB 0 | PDK1 = 0 | PDPK1 = 0 | PIK4CA 0 | PIK4CB 0 | PLK1 = 0 | PRKAA1 = 0 | PRKCA 0 | PTK2 = 0 | PTK2B 0 | RAF1 = 0 | [1] 0

Cc1ccc(-c2csc(Cn3nc(CC4OCCCO4)c4ccccc4c3=O)n2)cc1 (10 µM)
inactive: MAPK1 = 0 | MAPK4 = 0 | MAPKAPK2 = 0 | MKNK1 = 0 | NTRK2 = 0 | NTRK3 = 0 | PAK4 = 0 | PBK 0 | PDGFRB 0 | PDK1 = 0 | PDPK1 = 0 | PIK4CA 0 | PIK4CB 0 | PLK1 = 0 | PRKAA1 = 0 | PRKCA 0 | PTK2 = 0 | PTK2B 0 | RAF1 = 0 | [1] 0

O=S(=O)(c1cccc2c(Cl)cccc12)N1CCCNCC1 (10 µM)
inactive: MAPK1 = 0 | MAPK4 = 0 | MAPKAPK2 = 0 | MKNK1 = 0 | NTRK2 = 0 | NTRK3 = 0 | PAK4 = 0 | PBK 0 | PDGFRB 0 | PDK1 = 0 | PDPK1 = 0 | PIK4CA 0 | PIK4CB 0 | PLK1 = 0 | PRKAA1 = 0 | PRKCA 0 | PTK2 = 0 | PTK2B 0 | RAF1 = 0 | [1] 0

CC(C)Cn1cc(C#N)c2cc(Oc3ccc(NC(=O)[C@@H]4CCCN4)cc3)ccc21 (10 µM)
inactive: MAPK1 = 0 | MAPK4 = 0 | MAPKAPK2 = 0 | MKNK1 = 0 | NTRK2 = 0 | NTRK3 = 0 | PAK4 = 0 | PBK 0 | PDGFRB 0 | PDK1 = 0 | PDPK1 = 0 | PIK4CA 0 | PIK4CB 0 | PLK1 = 0 | PRKAA1 = 0 | PRKCA 0 | PTK2 = 0 | PTK2B 0 | RAF1 = 0 | [1] 0

COc1c(OCCCN2CCOCC2)ccc2c3n(c(=NC(=O)c4cnc(N)nc4)nc12)CCN3 [Copanlisib (dihydrochloride)] (10 µM)
inactive: MAPK1 = 0 | MAPK4 = 0 | MAPKAPK2 = 0 | MKNK1 = 0 | NTRK2 = 0 | NTRK3 = 0 | PAK4 = 0 | PBK 0 | PDGFRB 0 | PDK1 = 0 | PDPK1 = 0 | PIK4CA 0 | PIK4CB 0 | PLK1 = 0 | PRKAA1 = 0 | PRKCA 0 | PTK2 = 0 | PTK2B 0 | RAF1 = 0 | [1] 0

CC[C@H](C)[C@H](NC(=O)[C@H](CCCCN)NC(=O)[C@H](CC(C)C)NC(=O)[C@@H]1CCCN1C(=O)[C@H](CCC(=O)O)NC(=O)[C@H](Cc1ccc(O)cc1)NC(=O)[C@@H](NC(=O)[C@H](CO)NC(=O)CNC(=O)[C@H](CO)NC(=O)[C@H](CCCN=C(N)N)NC(=O)[C@H](CCCCN)NC(=O)[C@@H](NC(=O)[C@@H](N)CCCN=C(N)N)[C@@H](C)O)C(C)C)C(=O)O [Malantide] (10 µM)
inactive: MAPK1 = 0 | MAPK4 = 0 | MAPKAPK2 = 0 | MKNK1 = 0 | NTRK2 = 0 | NTRK3 = 0 | PAK4 = 0 | PBK 0 | PDGFRB 0 | PDK1 = 0 | PDPK1 = 0 | PIK4CA 0 | PIK4CB 0 | PLK1 = 0 | PRKAA1 = 0 | PRKCA 0 | PTK2 = 0 | PTK2B 0 | RAF1 = 0 | [1] 0

CCS(=O)(=O)c1ccc(Oc2cc(O[C@@H](C)CO)cc(C(=O)Nc3ccn(C)n3)c2)cn1 (10 µM)
inactive: MAPK1 = 0 | MAPK4 = 0 | MAPKAPK2 = 0 | MKNK1 = 0 | NTRK2 = 0 | NTRK3 = 0 | PAK4 = 0 | PBK 0 | PDGFRB 0 | PDK1 = 0 | PDPK1 = 0 | PIK4CA 0 | PIK4CB 0 | PLK1 = 0 | PRKAA1 = 0 | PRKCA 0 | PTK2 = 0 | PTK2B 0 | RAF1 = 0 | [1] 0

O=S(=O)(N=Cc1c(O)ccc2ccccc12)c1cccs1 (10 µM)
inactive: MAPK1 = 0 | MAPK4 = 0 | MAPKAPK2 = 0 | MKNK1 = 0 | NTRK2 = 0 | NTRK3 = 0 | PAK4 = 0 | PBK 0 | PDGFRB 0 | PDK1 = 0 | PDPK1 = 0 | PIK4CA 0 | PIK4CB 0 | PLK1 = 0 | PRKAA1 = 0 | PRKCA 0 | PTK2 = 0 | PTK2B 0 | RAF1 = 0 | [1] 0

O=C1C(=Cc2ccc(O)c(O)c2)Oc2ccccc21 (2.5 µM)
inactive: MAPK1 = 0 | MAPK4 = 0 | MAPKAPK2 = 0 | MKNK1 = 0 | NTRK2 = 0 | NTRK3 = 0 | PAK4 = 0 | PBK 0 | PDGFRB 0 | PDK1 = 0 | PDPK1 = 0 | PIK4CA 0 | PIK4CB 0 | PLK1 = 0 | PRKAA1 = 0 | PRKCA 0 | PTK2 = 0 | PTK2B 0 | RAF1 = 0 | [1] 0

2 successive entries out of the list so far, quoted:
CCS(=O)(=O)c1ccc(Oc2cc(O[C@@H](C)CO)cc(C(=O)Nc3ccn(C)n3)c2)cn1 (10 µM)
inactive: MAPK1 = 0 | MAPK4 = 0 | MAPKAPK2 = 0 | MKNK1 = 0 | NTRK2 = 0 | NTRK3 = 0 | PAK4 = 0 | PBK 0 | PDGFRB 0 | PDK1 = 0 | PDPK1 = 0 | PIK4CA 0 | PIK4CB 0 | PLK1 = 0 | PRKAA1 = 0 | PRKCA 0 | PTK2 = 0 | PTK2B 0 | RAF1 = 0 | [1] 0

O=S(=O)(N=Cc1c(O)ccc2ccccc12)c1cccs1 (10 µM)
inactive: MAPK1 = 0 | MAPK4 = 0 | MAPKAPK2 = 0 | MKNK1 = 0 | NTRK2 = 0 | NTRK3 = 0 | PAK4 = 0 | PBK 0 | PDGFRB 0 | PDK1 = 0 | PDPK1 = 0 | PIK4CA 0 | PIK4CB 0 | PLK1 = 0 | PRKAA1 = 0 | PRKCA 0 | PTK2 = 0 | PTK2B 0 | RAF1 = 0 | [1] 0

Further results:

OCCC#Cc1nc(-c2ccc(F)cc2)c(-c2ccncc2)n1CCCc1ccccc1 (2.5 µM)
inactive: MAPK1 = 0 | MAPK4 = 0 | MAPKAPK2 = 0 | MKNK1 = 0 | NTRK2 = 0 | NTRK3 = 0 | PAK4 = 0 | PBK 0 | PDGFRB 0 | PDK1 = 0 | PDPK1 = 0 | PIK4CA 0 | PIK4CB 0 | PLK1 = 0 | PRKAA1 = 0 | PRKCA 0 | PTK2 = 0 | PTK2B 0 | RAF1 = 0 | [1] 0

COc1cc(Nc2nc3ccccc3nc2NS(=O)(=O)c2ccc(NC(=O)c3ccc(C)c(OC)c3)cc2)cc(OC)c1 (10 µM)
inactive: MAPK1 = 0 | MAPK4 = 0 | MAPKAPK2 = 0 | MKNK1 = 0 | NTRK2 = 0 | NTRK3 = 0 | PAK4 = 0 | PBK 0 | PDGFRB 0 | PDK1 = 0 | PDPK1 = 0 | PIK4CA 0 | PIK4CB 0 | PLK1 = 0 | PRKAA1 = 0 | PRKCA 0 | PTK2 = 0 | PTK2B 0 | RAF1 = 0 | [1] 0

O=c1[nH]nc(Sc2ncc([N+](=O)[O-])s2)n1-c1ccc2c(c1)OCCO2 (2.5 µM)
inactive: MAPK1 = 0 | MAPK4 = 0 | MAPKAPK2 = 0 | MKNK1 = 0 | NTRK2 = 0 | NTRK3 = 0 | PAK4 = 0 | PBK 0 | PDGFRB 0 | PDK1 = 0 | PDPK1 = 0 | PIK4CA 0 | PIK4CB 0 | PLK1 = 0 | PRKAA1 = 0 | PRKCA 0 | PTK2 = 0 | PTK2B 0 | RAF1 = 0 | [1] 0

CC(C)(C)c1ccc(C(=O)Nc2cn3cc(-n4ccnc4)ccc3n2)cc1 (10 µM)
inactive: MAPK1 = 0 | MAPK4 = 0 | MAPKAPK2 = 0 | MKNK1 = 0 | NTRK2 = 0 | NTRK3 = 0 | PAK4 = 0 | PBK 0 | PDGFRB 0 | PDK1 = 0 | PDPK1 = 0 | PIK4CA 0 | PIK4CB 0 | PLK1 = 0 | PRKAA1 = 0 | PRKCA 0 | PTK2 = 0 | PTK2B 0 | RAF1 = 0 | [1] 0

COc1ccc(S(=O)(=O)N(CCO)c2ccccc2CN(C)CC=Cc2ccc(Cl)cc2)cc1 (2.5 µM)
inactive: MAPK1 = 0 | MAPK4 = 0 | MAPKAPK2 = 0 | MKNK1 = 0 | NTRK2 = 0 | NTRK3 = 0 | PAK4 = 0 | PBK 0 | PDGFRB 0 | PDK1 = 0 | PDPK1 = 0 | PIK4CA 0 | PIK4CB 0 | PLK1 = 0 | PRKAA1 = 0 | PRKCA 0 | PTK2 = 0 | PTK2B 0 | RAF1 = 0 | [1] 0
